Measured values: article doi:10.1101/651463 (bioRxiv, 2019)
These are yes or no findings as the source states them, for the method shown. In cells and extracts the contact can be indirect. Some binding calls cover weakened binding; strength is not graded here.

Sequences of proteins named here, by UniProt entry; tags and fusion partners are left off.
UniProt P21730: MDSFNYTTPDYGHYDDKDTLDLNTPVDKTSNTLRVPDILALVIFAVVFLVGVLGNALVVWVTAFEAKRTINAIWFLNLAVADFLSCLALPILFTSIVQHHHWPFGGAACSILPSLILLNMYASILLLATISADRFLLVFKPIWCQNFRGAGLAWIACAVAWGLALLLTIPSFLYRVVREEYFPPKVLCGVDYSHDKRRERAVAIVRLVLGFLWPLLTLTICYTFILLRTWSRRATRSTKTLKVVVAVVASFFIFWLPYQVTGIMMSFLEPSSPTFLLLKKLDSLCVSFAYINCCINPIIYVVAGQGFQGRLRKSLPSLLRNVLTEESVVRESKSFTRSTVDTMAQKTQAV
UniProt P29066: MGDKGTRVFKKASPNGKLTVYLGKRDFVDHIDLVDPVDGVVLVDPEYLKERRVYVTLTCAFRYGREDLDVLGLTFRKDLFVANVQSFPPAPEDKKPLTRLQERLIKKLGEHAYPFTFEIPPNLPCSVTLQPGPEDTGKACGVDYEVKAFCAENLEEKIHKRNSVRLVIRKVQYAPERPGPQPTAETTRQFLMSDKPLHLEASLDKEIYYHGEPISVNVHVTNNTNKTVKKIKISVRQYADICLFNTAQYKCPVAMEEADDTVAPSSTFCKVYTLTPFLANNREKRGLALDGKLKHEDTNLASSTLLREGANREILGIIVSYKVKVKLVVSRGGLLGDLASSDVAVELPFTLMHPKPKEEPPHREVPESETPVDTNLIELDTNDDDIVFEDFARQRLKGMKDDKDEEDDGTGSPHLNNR

Molecular target: complement C5a receptor (C5aR1) (UniProt P21730)
Test: co-IP

With “β-arrestin 1 (from UniProt P29066 1-418)” the binding was “binds”.
